Reference: PubChem BioAssay AID1259254 (NCATS, 2017)
Purpose: 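Gene knock-downs that lead to re-replication, shown by excess G2 DNA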 (primary screen). Cell system: human HCT116 colorectal cancer cells. Reagents: single siRNA against human genes. Time to read-out: 3 days. Read-out: 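Imaged Hoechst DNA stain sorts each cell into a cycle phase by DNA amount; per plate, G2 fraction set to 0% for non-targeting and 100% for GMNN siRNA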. Reading the numbers: G2 robust z-score: higher = more G2 cells, more excess DNA replication. Rule for the call: 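Active siRNAs have a G2 robust z of 5 or more median absolute deviations over the median, which in these data means about 38% or higher of GMNN control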.
This is one part, drawn at random, of about 59,000 reagents. In the full data, about 1,550 (2.6%) got an active call. 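G2 share is only a proxy for re-replication; each gene was hit by three separate siRNAs, and active genes were retested.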 Reagents against one gene are numbered here. Further read-outs or replicates are left out here. The record does not give: the amount of reagent.

G2 robust z-score, by target gene and reagent
FLRT2: #1 -0.0383 inactive; #2 -0.651 inactive; #3 -0.808 inactive
CCNO: #1 -1.68 inactive; #2 0.433 inactive; #3 -1.13 inactive
LOC645967: #1 0.272 inactive; #2 -0.503 inactive; #3 -0.801 inactive
ANKRD34B: #1 3.48 inactive; #2 -0.702 inactive; #3 3.63 inactive
VEGFD: #1 2.04 inactive; #2 0.303 inactive; #3 -0.66 inactive
PPP1R9B: #1 -0.407 inactive; #2 0.252 inactive; #3 2.39 inactive
JMJD1C: #1 -0.474 inactive; #2 -0.139 inactive; #3 -0.918 inactive
CFHR3: #1 0.789 inactive; #2 -0.13 inactive; #3 0.0492 inactive
GLUD2: #1 -0.84 inactive; #2 1.02 inactive; #3 -0.508 inactive
PAQR9: #1 0.744 inactive; #2 -0.808 inactive; #3 -0.73 inactive
CARNS1: #1 -0.422 inactive; #2 -0.899 inactive; #3 1.99 inactive
C1orf210: #1 1.62 inactive; #2 -0.402 inactive; #3 2.59 inactive
NR5A2: #1 1.12 inactive; #2 -1.02 inactive; #3 4.52 inactive
JRKL: #1 -1.21 inactive; #2 -0.42 inactive; #3 0.322 inactive
BRDT: #1 -1.08 inactive; #2 -1.12 inactive; #3 -0.349 inactive
SLC46A3: #1 -0.908 inactive; #2 0.0984 inactive; #3 2.37 inactive

7 neighbouring reagents already listed, for reference:
G2 robust z-score, by target gene and reagent
PAQR9: #2 -0.808 inactive; #3 -0.73 inactive
CARNS1: #1 -0.422 inactive; #2 -0.899 inactive; #3 1.99 inactive
C1orf210: #1 1.62 inactive; #2 -0.402 inactive
